PubChem BioAssay AID652272 – Drosophila RNAi Screening Center – 2013
Test: 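Genome-wide knock-down search for components of Hedgehog signalling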 (primary screen). Cells: Drosophila clone 8 (Cl8) cells. Reagents: long dsRNA against Drosophila genes. Read-out: 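Plate reader light from a firefly reporter under a ptc promoter fragment that responds to Hedgehog, with Renilla light as transfection reference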. Scale: firefly Hh reporter signal: higher = more ptc reporter light; Renilla reference signal: higher = more Renilla control light. Active means: 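Called a hit if the two-replicate mean z-score lies below -2 or above +3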. Meaning of the calls: active = hit: reporter lowered or raised; inactive = not a hit.
The deposit covers about 21,000 reagents; below is a random part of those that have a named target and a result. Of all reagents, 503 (2.4%) got an active call. 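Raw plate light values, not normalised; calls rest on replicate z-scores that were not deposited; hits include reporter decreases as well as increases.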 A plus sign joins genes that one reagent is predicted to hit. Not stated in the record: the amount of reagent, the time to read-out.

CG16956 [DRSC02544]
- firefly Hh reporter signal, replicate 1: 76180
- firefly Hh reporter signal, replicate 2: 40903
- Renilla reference signal, replicate 1: 2454
- Renilla reference signal, replicate 2: 4660
- call: inactive

CngA (Cyclic nucleotide-gated ion channel subunit A) [DRSC06580]
- firefly Hh reporter signal, replicate 1: 58423
- firefly Hh reporter signal, replicate 2: 36456
- Renilla reference signal, replicate 1: 1488
- Renilla reference signal, replicate 2: 2755
- call: inactive

CngA (Cyclic nucleotide-gated ion channel subunit A) [DRSC07362]
- firefly Hh reporter signal, replicate 1: 93184
- firefly Hh reporter signal, replicate 2: 51664
- Renilla reference signal, replicate 1: 2208
- Renilla reference signal, replicate 2: 3350
- call: inactive

CG13566 [DRSC04203]
- firefly Hh reporter signal, replicate 1: 64403
- firefly Hh reporter signal, replicate 2: 40000
- Renilla reference signal, replicate 1: 1804
- Renilla reference signal, replicate 2: 3152
- call: inactive

RpLP0-like (Ribosomal protein LP0-like) [DRSC06424]
- firefly Hh reporter signal, replicate 1: 51888
- firefly Hh reporter signal, replicate 2: 41830
- Renilla reference signal, replicate 1: 3248
- Renilla reference signal, replicate 2: 1963
- call: inactive

CG43149 [DRSC07859]
- firefly Hh reporter signal, replicate 1: 1.51e5
- firefly Hh reporter signal, replicate 2: 2.75e5
- Renilla reference signal, replicate 1: 3139
- Renilla reference signal, replicate 2: 9380
- call: inactive

CG6583 [DRSC02972]
- firefly Hh reporter signal, replicate 1: 1.03e5
- firefly Hh reporter signal, replicate 2: 48662
- Renilla reference signal, replicate 1: 2969
- Renilla reference signal, replicate 2: 5232
- call: inactive

frac (faulty attraction) [DRSC10867]
- firefly Hh reporter signal, replicate 1: 1.23e5
- firefly Hh reporter signal, replicate 2: 56068
- Renilla reference signal, replicate 1: 5163
- Renilla reference signal, replicate 2: 2483
- call: inactive

TRAM [DRSC18178]
- firefly Hh reporter signal, replicate 1: 1.16e5
- firefly Hh reporter signal, replicate 2: 2.63e5
- Renilla reference signal, replicate 1: 4810
- Renilla reference signal, replicate 2: 10187
- call: inactive

TRAM [DRSC18651]
- firefly Hh reporter signal, replicate 1: 78644
- firefly Hh reporter signal, replicate 2: 1.42e5
- Renilla reference signal, replicate 1: 3370
- Renilla reference signal, replicate 2: 5689
- call: inactive

mRpL33 (mitochondrial ribosomal protein L33) [DRSC18319]
- firefly Hh reporter signal, replicate 1: 83643
- firefly Hh reporter signal, replicate 2: 3.01e5
- Renilla reference signal, replicate 1: 2945
- Renilla reference signal, replicate 2: 9525
- call: inactive

Sdr (Secreted decoy of InR) [DRSC15517]
- firefly Hh reporter signal, replicate 1: 96244
- firefly Hh reporter signal, replicate 2: 81510
- Renilla reference signal, replicate 1: 3680
- Renilla reference signal, replicate 2: 3288
- call: inactive

CG16903 [DRSC18561]
- firefly Hh reporter signal, replicate 1: 92163
- firefly Hh reporter signal, replicate 2: 1.57e5
- Renilla reference signal, replicate 1: 4400
- Renilla reference signal, replicate 2: 6785
- call: inactive

Reformatted: results already given
| Gene | DRSC id | firefly Hh reporter signal, replicate 1 | firefly Hh reporter signal, replicate 2 | Renilla reference signal, replicate 1 | Renilla reference signal, replicate 2 | call |
| --- | --- | --- | --- | --- | --- | --- |
| frac (faulty attraction) | DRSC10867 | 1.23e5 | 56068 | 5163 | 2483 | inactive |
| TRAM | DRSC18178 | 1.16e5 | 2.63e5 | 4810 | 10187 | inactive |

Further records:
Ir93a (Ionotropic receptor 93a) [DRSC15212]
- firefly Hh reporter signal, replicate 1: 1.42e5
- firefly Hh reporter signal, replicate 2: 86896
- Renilla reference signal, replicate 1: 5821
- Renilla reference signal, replicate 2: 3060
- call: inactive

Ir93a (Ionotropic receptor 93a) [DRSC15213]
- firefly Hh reporter signal, replicate 1: 7.56e5
- firefly Hh reporter signal, replicate 2: 1.25e5
- Renilla reference signal, replicate 1: 37744
- Renilla reference signal, replicate 2: 3205
- call: inactive

Rrp40 (Ribosomal RNA processing 40) [DRSC00074]
- firefly Hh reporter signal, replicate 1: 6.28e5
- firefly Hh reporter signal, replicate 2: 2.96e5
- Renilla reference signal, replicate 1: 35521
- Renilla reference signal, replicate 2: 12534
- call: inactive

rau [DRSC03125]
- firefly Hh reporter signal, replicate 1: 1.37e5
- firefly Hh reporter signal, replicate 2: 47969
- Renilla reference signal, replicate 1: 4780
- Renilla reference signal, replicate 2: 1943
- call: inactive

CG17221 [DRSC00487]
- firefly Hh reporter signal, replicate 1: 1.18e5
- firefly Hh reporter signal, replicate 2: 59456
- Renilla reference signal, replicate 1: 2816
- Renilla reference signal, replicate 2: 5451
- call: inactive

eIF5B (eukaryotic translation initiation factor 5B) [DRSC08429]
- firefly Hh reporter signal, replicate 1: 65302
- firefly Hh reporter signal, replicate 2: 52305
- Renilla reference signal, replicate 1: 2596
- Renilla reference signal, replicate 2: 4145
- call: inactive

eIF5B (eukaryotic translation initiation factor 5B) [DRSC08710]
- firefly Hh reporter signal, replicate 1: 40609
- firefly Hh reporter signal, replicate 2: 33587
- Renilla reference signal, replicate 1: 2569
- Renilla reference signal, replicate 2: 3034
- call: inactive

RpS27 (Ribosomal protein S27) [DRSC14244]
- firefly Hh reporter signal, replicate 1: 2.74e5
- firefly Hh reporter signal, replicate 2: 37289
- Renilla reference signal, replicate 1: 21232
- Renilla reference signal, replicate 2: 2341
- call: active

CG12608 [DRSC19472]
- firefly Hh reporter signal, replicate 1: 1.55e5
- firefly Hh reporter signal, replicate 2: 78397
- Renilla reference signal, replicate 1: 3194
- Renilla reference signal, replicate 2: 2427
- call: inactive

Cyp6a22 (Cytochrome P450 6a22) [DRSC07382]
- firefly Hh reporter signal, replicate 1: 1.18e5
- firefly Hh reporter signal, replicate 2: 62837
- Renilla reference signal, replicate 1: 4633
- Renilla reference signal, replicate 2: 1863
- call: inactive

CG6426 [DRSC06985]
- firefly Hh reporter signal, replicate 1: 87936
- firefly Hh reporter signal, replicate 2: 60784
- Renilla reference signal, replicate 1: 2288
- Renilla reference signal, replicate 2: 4710
- call: inactive

Unc-115b + p24-2 + Unc-115a [DRSC16502]
- firefly Hh reporter signal, replicate 1: 58336
- firefly Hh reporter signal, replicate 2: 1.03e5
- Renilla reference signal, replicate 1: 1848
- Renilla reference signal, replicate 2: 3136
- call: inactive

CG3734 [DRSC15509]
- firefly Hh reporter signal, replicate 1: 5.28e5
- firefly Hh reporter signal, replicate 2: 44972
- Renilla reference signal, replicate 1: 27850
- Renilla reference signal, replicate 2: 1303
- call: inactive

Sid (Stress induced DNase) [DRSC16588]
- firefly Hh reporter signal, replicate 1: 1.00e5
- firefly Hh reporter signal, replicate 2: 95944
- Renilla reference signal, replicate 1: 3500
- Renilla reference signal, replicate 2: 2640
- call: inactive
